These results are taken from paper PMC6529012.

No constants are given. Whether binding was seen depends on the method and setting. Binding can be weak; no strength is given.

Assay [1] deals with human foreskin fibroblast fibronectin (human). Nature of the assay: adherence of radiolabelled bacteria to protein-coated wells; inhibition: fibronectin-coated wells preincubated with PBS (mock) or FnbA-2 peptide (200 ug/ml, 10 ug/well) for 1 h at room temperature, washed twice, then 35S-labelled B314 expressing Tp0136 for 1 h; scintillation counting; only the target purified.
Assay [2] shares this target. Kind of assay: adherence of radiolabelled bacteria to protein-coated wells; 1 ug fibronectin or laminin coated per well, blocked with 1% BSA in PBS; 35S-labelled B314 expressing Tp0136 added, 1 h at room temperature while rocking; scintillation counting; B314 with empty vector as control; only the target purified.

B1: Tp0136 of Treponema pallidum subsp. pallidum SS14 strain, expressed on the surface of B. burgdorferi B314 (protein, UniProt O83172 24-485)
chain: CDFTGIFAAIQSEVPIKTPSIPGAIYGLVKAGSKLYATNGRLWEKELNGTGSWQKVSSSSVPTDSDKKVMSIATDGNTFVLACVPGTGVYKHCVNGAGSSSTGTTASPSTETCSQHATLVGGTSKPFWLVPGGTGNNGNCGCGGGGGGSSSSSSSCIHIWLVPGGTGNNGNCGCGGGGGGSSSSSSSCIHIKVENTDEQFLDMGEGYVVTTKHLYTKNGSSSAGPAQCPGGGGGGGSSGGGGSSEYTKASCSFSTPILASVSDGCYHYILTKEKVYCRKQDTASSAASSPAQCPSSPSSSSSSSTNAGCEVAHGVDDPLCLAIFKHNGCEYLLIGGSRGYGEIKLEANSSGTNGTCMRLKESNVHKSPGQWGESSPTPKASAEQYRGTVGRFAVQKIYVVEKNGGGNGVAAGGAGCPANASSSSGGTSSTQRPDLYAAVGESSDTYTGLWKFDTTTCSWNRE
Turning to B1, the binding entry in assay [1] and in assay [2] was “binds” each time.

B2: Tp0136 of Treponema pallidum subsp. pallidum Nichols (Seattle-Nichols) strain, expressed on the surface of B. burgdorferi B314 (protein, UniProt O83172 24-485)
chain: B1 chain
With B2, the binding result in assay [1] and in assay [2] was “binds” each time.
